# Experimental data as given in US20060058243A1, “Methods and compositions for treating diabetes mellitis” (priority 2002, published 2006).
# For at least one compound, name, drawing or mass did not settle the structure.
# Tested on: 3T3-L1 adipocytes
# Experiment: Glucose transport induced by insulin or PGG in the presence of insulin-signaling pathway inhibitors
# Type: cell-based
# Conditions: FIG. 6
# Procedure: The glucose transport activity of the treated cells was measured by ^3H glucose taken up by the cells. HNMPA-(AM)3 inhibits IR Tyr kinase activity, Cytochalasin B inhibits GLUT4, Wortmannin inhibits PI-3K, respectively.
smiles,measurement,value
COC[C@H]1OC(=O)c2coc3c2[C@@]1(C)C1=C(C3=O)[C@@H]2CCC(=O)[C@@]2(C)C[C@H]1OC(C)=O [wortmannin],inhibition of the GTS activity mediated by either insulin or PGG,completely inhibited
